The record followed here is article PMC7819943, “Rice protein-binding microarrays: a tool to detect cis-acting elements near promoter regions in rice”.

Protein sequences, listed by entry. Tags and fused reporters are not part of them.
UniProt Q0JBA9, entry or part of it: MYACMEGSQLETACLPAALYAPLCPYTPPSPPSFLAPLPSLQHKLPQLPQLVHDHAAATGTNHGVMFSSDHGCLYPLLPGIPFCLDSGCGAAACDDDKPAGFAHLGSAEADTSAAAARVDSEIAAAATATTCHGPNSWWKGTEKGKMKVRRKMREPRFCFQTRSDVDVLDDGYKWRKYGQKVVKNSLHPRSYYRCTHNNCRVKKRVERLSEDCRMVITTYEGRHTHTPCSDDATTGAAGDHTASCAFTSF

This is one part of the list.

The assay addresses OsWRKY34 (Oryza sativa, UniProt Q0JBA9 1-250). The assay is described as follows: protein-binding microarray (RPBM); PBS, 2% BSA, 51.3 ng/ul salmon testes DNA, 50 uM zinc acetate, 200 nM TF, 25 C, 1 h; high values mean tight binding. Particulars: protein: recombinant; tags: N-terminal polyhistidine and DsRed monomer fusion (pET32a); label: CyDye5-dUTP incorporated in the synthesized complementary strand; 3' TTTTT single-stranded linker to array surface; dsDNA, one strand shown. An outline of the steps:
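The binding signal is fluorescence intensity per array feature (arbitrary units). Readings came from an Axon 4000B scanner after a washed, 2% BSA-blocked, double-stranded custom Agilent array had been incubated for 1 h at 25 °C with 200 nM protein and 50 µM zinc acetate. The protein was a Ni–NTA-purified transcription factor fused N-terminally to polyhistidine and DsRed, expressed in E. coli BL21-CodonPlus.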
For “GTAAATAGTCTCTGAAATACTCCAGTCTAGTACTCCACATCGGAGTCACCTAGTGCAG”, the binding signal is 8030 fluorescence intensity (a.u.).

Turning to “AGGGTCATGGATTAGATTTCGATCACTCTTGAGGGTCATGCGGAGTCACCTAGTGCAG”, the binding signal was 8850 fluorescence intensity (a.u.).

Regarding “GGTTGGTTCTTGTGTGTCCCTAAGCGTGAAAAAAATATCACGGAGTCACCTAGTGCAG”, the binding signal was 14200 fluorescence intensity (a.u.).

As to “CCAGTTCTTCATTCTCCTCTCCCGGTTCTGTTCTTGGTTCCGGAGTCACCTAGTGCAG”, the binding signal is 10800 fluorescence intensity (a.u.).

Regarding “TGAATCAACCACGTACGCGGTACTCCTCGTCCTCGCGATCCGGAGTCACCTAGTGCAG”, the binding signal is 8210 fluorescence intensity (a.u.).

As to “GCCGATTTTCCCCAATTAACGTGTATTTGTGAGGTTTTTTCGGAGTCACCTAGTGCAG”, the binding signal was 11800 fluorescence intensity (a.u.).

For “CCTCCGTTCAGTTCCATCCACCAAACCAATCAAACGCATTCGGAGTCACCTAGTGCAG”, the binding signal was 8450 fluorescence intensity (a.u.).

As to “ATATATATATATATATATATATATATACGCGACTAGAAGACGGAGTCACCTAGTGCAG”, the binding signal is 11400 fluorescence intensity (a.u.).

In the case of “GCGCGGGTCTCTTGCTTTCTTGGCGCTCCCGTCGGCGAGACGGAGTCACCTAGTGCAG”, the binding signal is 9750 fluorescence intensity (a.u.).

For “CGTTTCATATTATTATAAGCCGTTTGATTTTTTTCTAATCCGGAGTCACCTAGTGCAG”, the binding signal is 8140 fluorescence intensity (a.u.).

As to “CTTAATCGGTATGGGGAGAGTGTTCTTATTGTTTCATTTACGGAGTCACCTAGTGCAG”, the binding signal is 16800 fluorescence intensity (a.u.).

As for “TTTGACATCATTGACTTTTTAGCACATATTTGACCGTTCGCGGAGTCACCTAGTGCAG”, the binding signal is 14400 fluorescence intensity (a.u.).

With “AAATACTAGTAAACTGCTCTTTCTTTTGTGCTGTCTTGATCGGAGTCACCTAGTGCAG”, the binding signal is 14200 fluorescence intensity (a.u.).

“CCACTTACAAATATCACCCACACTTACACTTTCATTTTCGCGGAGTCACCTAGTGCAG”: the binding signal is 8700 fluorescence intensity (a.u.).

Consider “CACGGTCTTCAAAACACAACTTTGACTTCTTGTTTCTATACGGAGTCACCTAGTGCAG”, for which the binding signal was 10300 fluorescence intensity (a.u.).

For the sequence “TTTTTATTATGTTCTAAGTTTTGCTCAGCTCTTCATGTTTCGGAGTCACCTAGTGCAG”, the binding signal is 8700 fluorescence intensity (a.u.).

In the case of “ACAAACCAAATACATCACATATTATACATCTCAGATCCATCGGAGTCACCTAGTGCAG”, the binding signal was 8400 fluorescence intensity (a.u.).

For “AGGAGAATGATATAGCACATACCCTAGGAGCTCTTTTTCACGGAGTCACCTAGTGCAG”, the binding signal was 8520 fluorescence intensity (a.u.).

“GTACTTGCATGTTTCCATTCCCATTCCAATTCCAACCATACGGAGTCACCTAGTGCAG”: the binding signal is 9600 fluorescence intensity (a.u.).

Turning to “ATCACCACCGCCGCCGCCGTCTTCTTCTCCTCCTCCTCTTCGGAGTCACCTAGTGCAG”, the binding signal was 11500 fluorescence intensity (a.u.).

On to “GTCGTGTCGCCGTCTCCGAGTGCCTTCACCTCTGCCTTCCCGGAGTCACCTAGTGCAG”, for which the binding signal is 8910 fluorescence intensity (a.u.).

As for “ACTTTCATTCACTCAGATGTTCTCATTTATCATCCTTATACGGAGTCACCTAGTGCAG”, the binding signal is 12000 fluorescence intensity (a.u.).

Consider “CAGGTAGTGTGCAGTGTAGGTCGTCTGAGTCGGTCAGTTTCGGAGTCACCTAGTGCAG”, for which the binding signal is 9050 fluorescence intensity (a.u.).

With “AGCCCATATCTAATTCTCTAAATTTCATACCACATATTTTCGGAGTCACCTAGTGCAG”, the binding signal was 9900 fluorescence intensity (a.u.).

For the sequence “TCCGGTTGTTGTGCTGATTCTTCGTTCTTTCTCTCCCTCTCGGAGTCACCTAGTGCAG”, the binding signal was 10100 fluorescence intensity (a.u.).

As for “AGCAAACCAATCATGCATCATTACGCGTTAGTCAATCTCTCGGAGTCACCTAGTGCAG”, the binding signal was 8740 fluorescence intensity (a.u.).

Regarding “CACCTCCCTATCCTTCACACCTAGCTCGCTCGATCATTTCCGGAGTCACCTAGTGCAG”, the binding signal was 11000 fluorescence intensity (a.u.).

For “ACCCCTACGCACGCCGACGGGCCCTGCGCCAGAAACCCTCCGGAGTCACCTAGTGCAG”, the binding signal is 9780 fluorescence intensity (a.u.).

Regarding “ATTTCCATTTTCCTCGGGCAAGAACTGCTTTGTCCACTCCCGGAGTCACCTAGTGCAG”, the binding signal was 8980 fluorescence intensity (a.u.).

With “ACTTTTTTAAATATGTTTGACCGTTCGTTTTATTCAAAAACGGAGTCACCTAGTGCAG”, the binding signal was 8320 fluorescence intensity (a.u.).

For the sequence “TTCGACACCTGGTTTTTCTCTTACTTACAAACGGATGTTACGGAGTCACCTAGTGCAG”, the binding signal is 9310 fluorescence intensity (a.u.).

Regarding “GTTCCTTTATTTCTTTCTTTACTAGTACTAGTTGCATGTTCGGAGTCACCTAGTGCAG”, the binding signal was 9900 fluorescence intensity (a.u.).

Take “ACACTGACTGATTTACCCTTGATCATACTACTAGTACATTCGGAGTCACCTAGTGCAG”: the binding signal is 8470 fluorescence intensity (a.u.).

As for “TTTTCTCACGTGGAAACCACCGTTCGCTTCGTTAACCTCCCGGAGTCACCTAGTGCAG”, the binding signal was 10400 fluorescence intensity (a.u.).

For “TCGTTGACTATGTGTGGTGTTCCATGCCGCTAAGTCGATGCGGAGTCACCTAGTGCAG”, the binding signal is 9690 fluorescence intensity (a.u.).

For the sequence “GGCCCTCATGATGATGACACTACCGTTCCAGCCCAACATACGGAGTCACCTAGTGCAG”, the binding signal is 9290 fluorescence intensity (a.u.).

“TGGCGACCTAATTTACCGTCTCCCGCGAAACCCGGACAAACGGAGTCACCTAGTGCAG”: the binding signal is 8770 fluorescence intensity (a.u.).

Regarding “GTCCCTACTGTTGCTAGTTGCACTTCTCGCGATCACTTGACGGAGTCACCTAGTGCAG”, the binding signal was 9870 fluorescence intensity (a.u.).

In the case of “TACTGCAACTCTGCAAGCACATTGATCAATCGATCAATCCCGGAGTCACCTAGTGCAG”, the binding signal was 8450 fluorescence intensity (a.u.).

For the sequence “GACCGTGCGACGCACCATTTGATTACTGCCTTATTGAGTTCGGAGTCACCTAGTGCAG”, the binding signal was 9630 fluorescence intensity (a.u.).

Regarding “CGTGCCGTCCAACACCACTCATCCGATCCGACGGCCCGCGCGGAGTCACCTAGTGCAG”, the binding signal is 8360 fluorescence intensity (a.u.).

As to “CACAAGAGCGACGACCCCACCGTATCCCACACCTCGCTCACGGAGTCACCTAGTGCAG”, the binding signal was 10900 fluorescence intensity (a.u.).

Take “TGATGGATGTATTGGATATATGGTTGTGTCCTGGTTTACCCGGAGTCACCTAGTGCAG”: the binding signal is 8140 fluorescence intensity (a.u.).

For the sequence “ATTCCTCATTTAGTACCAGGCTCTGGTTTCTCTCGGTGCTCGGAGTCACCTAGTGCAG”, the binding signal is 8090 fluorescence intensity (a.u.).

Take “CCTTCATTCCCTCCGTCGTTCGCGTTCATCTTCTGCTTGTCGGAGTCACCTAGTGCAG”: the binding signal was 9480 fluorescence intensity (a.u.).

Take “TTACATCTAGATCTTTTGCAACTTTTATTTAATTAAATTACGGAGTCACCTAGTGCAG”: the binding signal was 9970 fluorescence intensity (a.u.).

Take “TGCCATTGCCCGCCCCATTCTGCCGTCTGCACCAGTCACACGGAGTCACCTAGTGCAG”: the binding signal is 9070 fluorescence intensity (a.u.).

Take “ACGACGACCACACATGATACACGATACCCTTCTCTCCTTTCGGAGTCACCTAGTGCAG”: the binding signal is 9950 fluorescence intensity (a.u.).

As to “CTTTTGTTGCCCACCCACCCATCAATCCGGTACCATGCAGCGGAGTCACCTAGTGCAG”, the binding signal is 8070 fluorescence intensity (a.u.).

“TTTGTCAGAGGCTGCCCGTCCAACTTTTCTCATTGGTTCGCGGAGTCACCTAGTGCAG”: the binding signal is 9430 fluorescence intensity (a.u.).

In the case of “TAGGTAGAACCCTGACGACGACAACTAGCGATGGGCGGGGCGGAGTCACCTAGTGCAG”, the binding signal was 8800 fluorescence intensity (a.u.).

For “GTCTCACCTCACCCACACCCACTCTCTTCTTCTGCTTCCTCGGAGTCACCTAGTGCAG”, the binding signal is 9080 fluorescence intensity (a.u.).

With “CCTCTAATATAAGGGATTTTGATATTTTGCTTGTATTGTTCGGAGTCACCTAGTGCAG”, the binding signal is 8410 fluorescence intensity (a.u.).

“ATCTCACTCCCTTATATCGCTCGCTCACTCGCTAGCTCGCCGGAGTCACCTAGTGCAG”: the binding signal is 9970 fluorescence intensity (a.u.).
